Source: publication PMC7570948 (2020)
Results are given in words; binding and its absence hold for the method and conditions named. In cells and extracts the contact can be indirect. Some entries that bind do so weakly or less than the wild type. For some assays here: Where a sequence is shown, tags or fusion partners need not be part of it.

Amino acid sequences for entries named in this document (tags omitted). Residues count along the entry.
UniProt P32248, residues 25-378: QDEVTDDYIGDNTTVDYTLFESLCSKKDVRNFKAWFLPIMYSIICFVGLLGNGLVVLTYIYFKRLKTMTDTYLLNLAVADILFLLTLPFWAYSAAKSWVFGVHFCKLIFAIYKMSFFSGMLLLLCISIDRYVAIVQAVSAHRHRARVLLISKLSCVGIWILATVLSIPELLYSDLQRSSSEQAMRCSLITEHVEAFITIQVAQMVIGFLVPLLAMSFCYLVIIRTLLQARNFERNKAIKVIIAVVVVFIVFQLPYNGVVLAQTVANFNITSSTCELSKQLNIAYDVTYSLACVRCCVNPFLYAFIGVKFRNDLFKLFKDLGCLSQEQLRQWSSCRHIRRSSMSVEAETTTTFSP
UniProt P51685: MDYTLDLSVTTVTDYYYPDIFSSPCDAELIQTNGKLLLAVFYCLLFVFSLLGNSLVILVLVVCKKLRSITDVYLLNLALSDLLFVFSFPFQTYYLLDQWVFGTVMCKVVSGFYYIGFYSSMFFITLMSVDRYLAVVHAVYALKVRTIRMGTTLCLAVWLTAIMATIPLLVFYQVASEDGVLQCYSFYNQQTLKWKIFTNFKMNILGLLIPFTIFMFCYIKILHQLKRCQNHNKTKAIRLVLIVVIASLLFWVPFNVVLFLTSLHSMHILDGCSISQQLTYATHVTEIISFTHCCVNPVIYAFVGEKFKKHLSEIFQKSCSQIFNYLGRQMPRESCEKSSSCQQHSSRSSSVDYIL
UniProt P51681: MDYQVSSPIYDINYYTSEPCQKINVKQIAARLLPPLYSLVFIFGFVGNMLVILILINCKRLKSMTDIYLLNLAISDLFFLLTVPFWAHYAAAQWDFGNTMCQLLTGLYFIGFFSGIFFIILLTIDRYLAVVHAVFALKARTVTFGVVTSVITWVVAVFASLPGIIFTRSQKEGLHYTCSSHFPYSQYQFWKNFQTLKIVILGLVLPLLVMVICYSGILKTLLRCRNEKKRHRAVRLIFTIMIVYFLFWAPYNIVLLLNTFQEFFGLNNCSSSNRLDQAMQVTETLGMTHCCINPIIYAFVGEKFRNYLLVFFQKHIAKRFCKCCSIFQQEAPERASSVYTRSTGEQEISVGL
UniProt P49238: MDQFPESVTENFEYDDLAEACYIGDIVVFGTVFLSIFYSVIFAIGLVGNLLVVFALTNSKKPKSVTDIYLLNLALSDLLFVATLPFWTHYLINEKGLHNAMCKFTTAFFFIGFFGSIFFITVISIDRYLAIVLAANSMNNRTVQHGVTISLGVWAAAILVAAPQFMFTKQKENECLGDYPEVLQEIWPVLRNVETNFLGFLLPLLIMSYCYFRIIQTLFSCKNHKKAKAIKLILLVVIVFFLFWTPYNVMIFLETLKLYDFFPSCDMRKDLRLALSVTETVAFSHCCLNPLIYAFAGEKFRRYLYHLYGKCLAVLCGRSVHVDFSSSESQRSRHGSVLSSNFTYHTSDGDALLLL
UniProt O00574: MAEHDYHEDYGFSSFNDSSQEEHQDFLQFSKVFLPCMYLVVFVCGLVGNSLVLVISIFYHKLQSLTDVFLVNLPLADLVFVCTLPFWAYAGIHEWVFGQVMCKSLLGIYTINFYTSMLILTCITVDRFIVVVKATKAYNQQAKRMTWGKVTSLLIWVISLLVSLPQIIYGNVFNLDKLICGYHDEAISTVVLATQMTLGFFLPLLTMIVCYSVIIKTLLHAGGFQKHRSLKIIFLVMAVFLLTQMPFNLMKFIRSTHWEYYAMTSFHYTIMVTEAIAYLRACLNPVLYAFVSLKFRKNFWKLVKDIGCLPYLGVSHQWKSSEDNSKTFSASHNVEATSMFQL
UniProt P32302: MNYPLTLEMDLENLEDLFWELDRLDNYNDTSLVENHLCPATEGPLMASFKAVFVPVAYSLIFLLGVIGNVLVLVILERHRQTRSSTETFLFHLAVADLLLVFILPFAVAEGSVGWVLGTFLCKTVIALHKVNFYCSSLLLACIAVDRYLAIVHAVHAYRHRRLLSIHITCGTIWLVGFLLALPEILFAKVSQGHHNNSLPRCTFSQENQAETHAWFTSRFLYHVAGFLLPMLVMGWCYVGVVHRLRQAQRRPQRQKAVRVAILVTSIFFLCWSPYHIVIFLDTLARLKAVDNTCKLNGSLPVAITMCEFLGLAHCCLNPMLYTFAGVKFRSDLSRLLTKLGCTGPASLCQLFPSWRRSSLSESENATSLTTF
UniProt P32121: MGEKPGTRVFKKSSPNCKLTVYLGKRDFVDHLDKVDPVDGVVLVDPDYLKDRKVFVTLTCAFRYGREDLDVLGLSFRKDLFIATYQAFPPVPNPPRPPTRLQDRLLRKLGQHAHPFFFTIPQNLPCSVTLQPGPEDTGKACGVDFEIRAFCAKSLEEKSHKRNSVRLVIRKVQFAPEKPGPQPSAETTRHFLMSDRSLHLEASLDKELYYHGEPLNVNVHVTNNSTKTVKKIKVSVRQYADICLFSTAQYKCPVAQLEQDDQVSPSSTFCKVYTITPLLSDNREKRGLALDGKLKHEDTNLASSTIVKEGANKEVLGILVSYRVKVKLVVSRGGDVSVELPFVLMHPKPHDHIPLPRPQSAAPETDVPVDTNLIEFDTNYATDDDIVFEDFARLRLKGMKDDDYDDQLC

Columns and labels:
Experiment in all cases: split reporter; NanoLuc complementation in live HEK293T cells co-transfected with receptor-SmBiT and LgBiT-β-arrestin-2; recruitment induced by 200 nM of one known agonist chemokine (screen) or by a concentration series of CCL19 (CCR7); luminescence read for 20 min
[1] = molecular target: CCR7 C-terminally tagged to SmBiT (human) (UniProt P32248)
[2] = molecular target: T1, CCR1 C-terminally tagged to SmBiT (human) (UniProt P32246)
T1 sequence: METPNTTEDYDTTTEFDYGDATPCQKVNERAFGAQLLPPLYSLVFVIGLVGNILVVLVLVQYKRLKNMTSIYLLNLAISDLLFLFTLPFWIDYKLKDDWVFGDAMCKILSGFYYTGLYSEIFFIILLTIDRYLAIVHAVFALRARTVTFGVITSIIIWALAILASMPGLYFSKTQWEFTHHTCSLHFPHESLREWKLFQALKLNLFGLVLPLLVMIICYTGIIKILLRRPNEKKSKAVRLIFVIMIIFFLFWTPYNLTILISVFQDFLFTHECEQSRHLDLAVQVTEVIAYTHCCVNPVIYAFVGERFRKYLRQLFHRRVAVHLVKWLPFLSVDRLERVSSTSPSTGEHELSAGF

[3] = molecular target: T2, CCR6 C-terminally tagged to SmBiT (human) (UniProt P51684)
T2 sequence: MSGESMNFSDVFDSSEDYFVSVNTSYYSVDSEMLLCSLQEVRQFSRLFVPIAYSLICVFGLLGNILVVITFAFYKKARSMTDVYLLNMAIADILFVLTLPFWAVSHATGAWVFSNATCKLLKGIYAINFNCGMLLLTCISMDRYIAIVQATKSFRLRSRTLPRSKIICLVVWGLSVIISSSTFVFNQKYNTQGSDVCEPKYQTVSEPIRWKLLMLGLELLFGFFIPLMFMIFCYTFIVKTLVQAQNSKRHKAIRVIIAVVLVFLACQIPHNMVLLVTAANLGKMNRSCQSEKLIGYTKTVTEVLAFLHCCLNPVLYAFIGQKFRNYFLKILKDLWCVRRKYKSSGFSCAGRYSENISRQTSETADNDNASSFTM

[4] = molecular target: T3, ACKR2 C-terminally tagged to SmBiT (human) (UniProt O00590)
T3 sequence: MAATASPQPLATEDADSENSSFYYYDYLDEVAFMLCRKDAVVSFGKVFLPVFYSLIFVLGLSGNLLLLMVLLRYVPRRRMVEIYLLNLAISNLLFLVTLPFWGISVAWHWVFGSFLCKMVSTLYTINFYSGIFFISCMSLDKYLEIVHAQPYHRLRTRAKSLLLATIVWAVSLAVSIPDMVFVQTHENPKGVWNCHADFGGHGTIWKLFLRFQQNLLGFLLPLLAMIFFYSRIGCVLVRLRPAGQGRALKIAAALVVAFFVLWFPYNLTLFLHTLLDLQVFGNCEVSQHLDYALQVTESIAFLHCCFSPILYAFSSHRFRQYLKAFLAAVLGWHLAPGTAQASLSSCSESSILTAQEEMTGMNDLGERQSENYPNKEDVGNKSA

[5] = molecular target: CCR8 C-terminally tagged to SmBiT (human) (UniProt P51685)
[6] = molecular target: CCR5 C-terminally tagged to SmBiT (human) (UniProt P51681)
[7] = molecular target: T4, CCR10 C-terminally tagged to SmBiT (human) (UniProt P46092)
T4 sequence: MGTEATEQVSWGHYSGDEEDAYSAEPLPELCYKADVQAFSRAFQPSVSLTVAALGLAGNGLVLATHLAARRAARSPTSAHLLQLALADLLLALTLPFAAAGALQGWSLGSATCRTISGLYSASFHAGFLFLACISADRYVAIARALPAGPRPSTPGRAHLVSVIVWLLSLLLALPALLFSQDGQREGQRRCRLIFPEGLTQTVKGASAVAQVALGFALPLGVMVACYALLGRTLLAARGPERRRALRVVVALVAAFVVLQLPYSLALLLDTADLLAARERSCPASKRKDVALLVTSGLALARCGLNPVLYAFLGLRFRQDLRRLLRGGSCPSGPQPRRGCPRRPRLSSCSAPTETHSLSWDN

[8] = molecular target: CX3CR1 C-terminally tagged to SmBiT (human) (UniProt P49238)
[9] = molecular target: T5, CCR4 C-terminally tagged to SmBiT (human) (UniProt P51679)
T5 sequence: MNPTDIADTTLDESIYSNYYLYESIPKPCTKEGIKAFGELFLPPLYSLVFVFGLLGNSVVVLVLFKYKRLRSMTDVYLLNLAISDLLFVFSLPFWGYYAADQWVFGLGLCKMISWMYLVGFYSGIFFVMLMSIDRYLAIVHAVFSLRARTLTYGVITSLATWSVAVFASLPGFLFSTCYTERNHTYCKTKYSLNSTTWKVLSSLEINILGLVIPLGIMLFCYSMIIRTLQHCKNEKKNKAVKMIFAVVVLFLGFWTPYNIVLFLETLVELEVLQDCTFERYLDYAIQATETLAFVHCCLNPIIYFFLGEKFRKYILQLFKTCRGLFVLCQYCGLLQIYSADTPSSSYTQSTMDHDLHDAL

[10] = molecular target: CXCR6 C-terminally tagged to SmBiT (human) (UniProt O00574)
[11] = molecular target: T6, XCR1 C-terminally tagged to SmBiT (human) (UniProt P46094)
T6 sequence: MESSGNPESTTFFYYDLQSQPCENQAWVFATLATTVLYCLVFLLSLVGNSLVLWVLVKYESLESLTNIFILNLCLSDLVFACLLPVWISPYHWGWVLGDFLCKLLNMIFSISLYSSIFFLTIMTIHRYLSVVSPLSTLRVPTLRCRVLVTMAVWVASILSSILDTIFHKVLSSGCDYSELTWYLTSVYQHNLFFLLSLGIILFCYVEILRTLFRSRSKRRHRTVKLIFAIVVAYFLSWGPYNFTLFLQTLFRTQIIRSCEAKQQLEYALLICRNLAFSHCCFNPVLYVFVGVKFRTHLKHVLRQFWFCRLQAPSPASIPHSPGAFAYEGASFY

[12] = molecular target: T7, CCR3 C-terminally tagged to SmBiT (human) (UniProt P51677)
T7 sequence: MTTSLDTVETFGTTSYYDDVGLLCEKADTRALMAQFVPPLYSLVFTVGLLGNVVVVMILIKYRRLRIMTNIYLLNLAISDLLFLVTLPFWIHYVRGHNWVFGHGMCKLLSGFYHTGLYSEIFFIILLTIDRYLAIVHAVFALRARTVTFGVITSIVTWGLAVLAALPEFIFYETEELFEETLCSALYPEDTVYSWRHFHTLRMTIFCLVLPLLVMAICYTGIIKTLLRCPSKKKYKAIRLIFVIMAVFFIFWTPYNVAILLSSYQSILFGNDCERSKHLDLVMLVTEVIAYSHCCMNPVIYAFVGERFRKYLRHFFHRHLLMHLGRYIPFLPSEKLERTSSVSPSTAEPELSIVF

[13] = molecular target: T8, CCR9 C-terminally tagged to SmBiT (human) (UniProt P51686)
T8 sequence: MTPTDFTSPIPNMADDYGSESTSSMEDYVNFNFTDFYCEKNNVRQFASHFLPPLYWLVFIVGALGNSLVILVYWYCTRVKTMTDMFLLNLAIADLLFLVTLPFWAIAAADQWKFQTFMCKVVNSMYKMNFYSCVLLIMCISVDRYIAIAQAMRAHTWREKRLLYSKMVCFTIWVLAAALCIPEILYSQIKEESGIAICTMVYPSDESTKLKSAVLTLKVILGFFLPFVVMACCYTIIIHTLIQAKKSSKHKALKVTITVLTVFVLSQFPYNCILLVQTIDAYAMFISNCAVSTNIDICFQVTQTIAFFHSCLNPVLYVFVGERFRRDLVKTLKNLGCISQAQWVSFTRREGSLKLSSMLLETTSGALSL

[14] = molecular target: CXCR5 C-terminally tagged to SmBiT (human) (UniProt P32302)

Measured: binding

Human β-arrestin-2 N-terminally fused to LgBiT (from UniProt P32121 1-409)
binds: all assays above
